Data as given in PubChem BioAssay AID504784 (Drosophila RNAi Screening Center, 2011).
In all, the deposit lists about 17,000 reagents; shown is an unselected part of those with a known target gene and a result. 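Each column is one replicate's B-score; the combined score over replicates was not deposited, so single values may mislead.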 Names joined by + are all predicted targets of the reagent. Reagent sequences are not shown.

Aim: 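Search for regulators of lipid droplet storage in oleate-fed fly cells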 (primary screen)
System: Drosophila Kc167 embryonic cells
Knock-down reagent: long dsRNA against Drosophila genes, about 250 ng dsRNA per well
Timing: 4 days
Treatment: cells fed 400 µM oleic acid bound to BSA
Measurement: 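Cells imaged and segmented; ratio of lipid droplet area to nuclear area, log-transformed, then normalised as a B-score over the screen; higher means more stored lipid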
Scale: droplet/nuclear area B-score: higher = more stored lipid (overstorage)

The first 7 entries, ahead of the listing:
| droplet/nuclear area B-score, replicate 1 | droplet/nuclear area B-score, replicate 2 | droplet/nuclear area B-score, replicate 3 | Gene | amplicon |
| --- | --- | --- | --- | --- |
| 0.0256 | -1.34 | – | Cec2 | DRSC21885 |
| -1.93 | 1.31 | – | Nepl20 | DRSC14878 |
| -1.97 | -0.145 | – | CG11226 | DRSC11639 |
| -0.131 | 3.07 | – | CG13594 | DRSC04229 |
| 0.338 | -1.09 | – | CG13594 | DRSC23254 |
| 1.64 | 1.48 | – | mRpL21 | DRSC11100 |
| 0.0195 | 1.32 | 0.0326 | Rpt3 | DRSC20283 |

The list itself, repeating the preview:
| droplet/nuclear area B-score, replicate 1 | droplet/nuclear area B-score, replicate 2 | droplet/nuclear area B-score, replicate 3 | Gene | amplicon |
| --- | --- | --- | --- | --- |
| 0.0256 | -1.34 | – | Cec2 | DRSC21885 |
| -1.93 | 1.31 | – | Nepl20 | DRSC14878 |
| -1.97 | -0.145 | – | CG11226 | DRSC11639 |
| -0.131 | 3.07 | – | CG13594 | DRSC04229 |
| 0.338 | -1.09 | – | CG13594 | DRSC23254 |
| 1.64 | 1.48 | – | mRpL21 | DRSC11100 |
| 0.0195 | 1.32 | 0.0326 | Rpt3 | DRSC20283 |
| 0.395 | 0.802 | – | CG13538 | DRSC04180 |
| 2.96 | 2.91 | – | CG5532 | DRSC04509 |
| 1.15 | -0.799 | -0.00197 | CG13458 | DRSC10005 |
| 0.0651 | -1.25 | – | CG3407 | DRSC00603 |
| -2.17 | -0.268 | – | Srp19 | DRSC11288 |
| 0.945 | -2.05 | – | mira | DRSC16998 |
| -1.91 | 0.0871 | -0.322 | U4-U6-60K | DRSC10624 |
| 0.626 | 0.134 | – | CG13784 | DRSC00974 |
| -2.42 | -0.778 | – | CG13784 | DRSC02287 |
| 2.47 | 0.442 | – | IntS2 | DRSC20094 |
| 0.0253 | 0.0419 | – | saturn | DRSC09303 |
| 0.26 | -0.392 | – | CG17648 | DRSC00508 |
| 1.03 | -2.82 | – | psd | DRSC03131 |
| -1.31 | -0.0275 | – | CG15535 | DRSC15071 |
| 0.277 | 0.915 | – | CG12948 | DRSC14576 |
| 0.838 | 1.87 | – | Nuf2 | DRSC03123 |
| 0.0536 | 2.91 | – | cdm | DRSC16213 |
| 0.883 | 1.9 | – | Ibf1 | DRSC16419 |
| -0.297 | 0.102 | – | CG30375 | DRSC06834 |
| -1.17 | -1.28 | – | nahoda | DRSC03954 |
| 1.35 | -0.1 | – | nahoda | DRSC04126 |
| 2.52 | 2.31 | – | tea | DRSC06110 |
| 2.97 | 1.92 | – | tea | DRSC06236 |
| -0.7 | -1.97 | – | CG32264 | DRSC08061 |
| 0.489 | -2.14 | – | CG32264 | DRSC08167 |
| -0.11 | 0.776 | – | CG32264 | DRSC08169 |
| 1.11 | 0.0963 | 0.393 | CG32264 | DRSC08285 |
| 0.109 | 1.53 | – | CG32264 | DRSC08437 |
| -0.459 | -1.38 | -0.373 | NELF-B | DRSC17734 |
| -2.97 | -1.74 | – | rdo | DRSC02452 |
| 0.0974 | -0.012 | – | CG33284 | DRSC22905 |
| 2.18 | 0.388 | – | TwdlB | DRSC16050 |
| -0.536 | 1.97 | – | mex1 | DRSC11368 |
| 0.0361 | 0.0265 | – | Pus1 | DRSC15548 |
| -0.451 | -0.913 | 0.153 | Nipsnap | DRSC20169 |
| -1.12 | – | – | LBR | DRSC04298 |
| -0.325 | 0.616 | – | CG1233 | DRSC08269 |
| -1.82 | -1.6 | – | Med | DRSC16737 |
| 2.33 | 1.03 | – | CG2217 + CG42740 | DRSC14141 |
| 0.701 | -0.187 | – | CG31200 | DRSC15285 |
| 0.595 | – | – | Sirt7 | DRSC14294 |
| -0.387 | -0.0319 | – | CG18823 | DRSC18168 |
| -0.247 | -0.488 | – | Cpsf160 | DRSC05968 |
| 0.229 | -1.89 | – | CG14006 | DRSC02338 |
| -0.258 | 0.405 | 0.151 | CG15597 | DRSC12283 |
| 0.198 | 2.17 | – | CG14589 | DRSC04866 |
| 0.279 | -3.33 | – | Caper | DRSC02137 |
| -1.1 | 1.49 | – | Fadd | DRSC14122 |
| 1.16 | 0.0299 | – | kl-2 | DRSC21136 |
